To fix the notation:
B1: A6 (antibody, IgG1, V domains shown)
VH: QVQLVQSGAEVKKPGSSVKVSCKASGGTFRNHAFSWVRQAPGQGLEWMGWISAYNGYTHYAEKLQGRVTMTTDTSTSTAYMELRSLRSDDTAVYYCARVSASYNSDWSLHYYYGMDVWGQGTTVTVSS
VL: QSVLTQPPSVSAAPGQEVTISCSGSNSNIGNNYVSWYQQLPGTAPKLLIYDNNERPSGIPDRFSGSKSGTSATLGITGLQTGDEADYYCGTWDSSLSAGVFGGGTKLTVL
B2: B5 (antibody, IgG1, V domains shown)
VH: QMQLVQSWAEVKKPGASVKVSCKASAYTFTNYYIHWVRQAPGQGLEWMGIINPSSGATTYAQRLQGRVIMTRDTSTSTVNMELSSLRSEDTAVYYCARSTLWFSEFDYWGQGTLVTVSS
VL: QSVLTQPASVSGSPGQSITISCTGTTSDVGGFNYVSWYQQHPGKVPKLIIFDVSNRPSSVSDRFSGSKSVNTASLTISGLQAEDEADYYCSSYTDSGSYIFGTGTKVTVL
B3: B4 (antibody, IgG1, V domains shown)
VH: QVQLVQSGAEVKKPGSAVKVSCKASGGTFSSYAISWVRQAPGQGLEWMGGIIPILGTADYAQKFQGRVTITADESTSTAYMELSSLRSEDTAVYYCARDEIPLEYCTSTSCYHAFDIWGQGTMVTVSS
VL: NIQMTQSPPSLSAFVGDRVTITCQASQAINNYLNWYQQKPGKAPKLLIYDASNLETGVPSRFSGSGSGTDFTFTISSLQPEDNATYYCQQYDKLPLTFGGGTKVEIK

No constants are given. Whether binding was seen depends on the method and setting. Some entries that bind do so weakly or less than the wild type.

The test deals with soluble EGFR (UniProt P00533). Nature of the test: binding of purified IgG to soluble EGFR, method not detailed.
Regarding B1, the binding entry is “binds”.

For B2, the binding entry was “binds”.

With B3, the binding result is “binds”.
